Results deposited as PubChem BioAssay AID1508597 (Cure First, 2020)
In all, the deposit lists about 2,100 reagents; shown is a random part of them. 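Calls flag viability under 80% in either arm, not effects specific to rucaparib; the reference for percent is not stated.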 Entries without a mark were called inactive. Reagent sequences are not shown. Not given: the 100% reference.

- Screen: 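Survival screen with siRNA in ovarian cancer cells derived from patients, with or without rucaparib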 (primary screen)
- System: human ovarian carcinoma lines grown from tumours: OCI-P5x (papillary serous) and OCI-C5x (clear cell)
- Reagent: siRNA pool against human genes, 1.25 pmol siRNA per well
- Duration: 72 h or 96 h, depending on the cell culture
- Challenge: rucaparib 20 µM (about IC30) or vehicle, present until read-out
- Measured: 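ATP luminescence measured at 72 or 96 h according to the culture, then normalised and expressed as percent viability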
- Reading the numbers: viability, normalised: higher = more viable cells remaining
- Call rule: 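a well counts as a hit if its normalised viability is under 80 percent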
- Meaning of the calls: active = viability under 80%; inactive = viability 80% or more

| gene symbol | rucaparib or vehicle | cell line | technical replicate | viability, normalised (%) |
| --- | --- | --- | --- | --- |
| MAPK8 (GeneID 5599) | Rucaparib | OCI-C5x (clear cell) | 1 | 62.2 (active) |
| MAPK8 (GeneID 5599) | Rucaparib | OCI-C5x (clear cell) | 2 | 51.9 (active) |
| MAPK8 (GeneID 5599) | Rucaparib | OCI-C5x (clear cell) | 3 | 53.7 (active) |
| MAPK8 (GeneID 5599) | Rucaparib | OCI-P5x (serous) | 1 | 112 |
| MAPK8 (GeneID 5599) | Rucaparib | OCI-P5x (serous) | 2 | 120 |
| MAPK8 (GeneID 5599) | Rucaparib | OCI-P5x (serous) | 3 | 125 |
| MAPK8 (GeneID 5599) | Vehicle | OCI-C5x (clear cell) | 1 | 87.1 |
| MAPK8 (GeneID 5599) | Vehicle | OCI-C5x (clear cell) | 2 | 67 (active) |
| MAPK8 (GeneID 5599) | Vehicle | OCI-C5x (clear cell) | 3 | 59.3 (active) |
| MAPK8 (GeneID 5599) | Vehicle | OCI-P5x (serous) | 1 | 96.9 |
| MAPK8 (GeneID 5599) | Vehicle | OCI-P5x (serous) | 2 | 75.1 (active) |
| MAPK8 (GeneID 5599) | Vehicle | OCI-P5x (serous) | 3 | 108 |
| EZH1 (GeneID 2145) | Rucaparib | OCI-C5x (clear cell) | 1 | 37.7 (active) |
| EZH1 (GeneID 2145) | Rucaparib | OCI-C5x (clear cell) | 2 | 27 (active) |
| EZH1 (GeneID 2145) | Rucaparib | OCI-C5x (clear cell) | 3 | 31.3 (active) |
| EZH1 (GeneID 2145) | Rucaparib | OCI-P5x (serous) | 1 | 52.7 (active) |
| EZH1 (GeneID 2145) | Rucaparib | OCI-P5x (serous) | 2 | 52.6 (active) |
| EZH1 (GeneID 2145) | Rucaparib | OCI-P5x (serous) | 3 | 48.3 (active) |
| EZH1 (GeneID 2145) | Vehicle | OCI-C5x (clear cell) | 1 | 44.1 (active) |
| EZH1 (GeneID 2145) | Vehicle | OCI-C5x (clear cell) | 2 | 45.8 (active) |
| EZH1 (GeneID 2145) | Vehicle | OCI-C5x (clear cell) | 3 | 54.8 (active) |
| EZH1 (GeneID 2145) | Vehicle | OCI-P5x (serous) | 1 | 45.1 (active) |
| EZH1 (GeneID 2145) | Vehicle | OCI-P5x (serous) | 2 | 46.8 (active) |
| EZH1 (GeneID 2145) | Vehicle | OCI-P5x (serous) | 3 | 48.2 (active) |
| CXXC5 (GeneID 51523) | Rucaparib | OCI-C5x (clear cell) | 1 | 93 |
| CXXC5 (GeneID 51523) | Rucaparib | OCI-C5x (clear cell) | 2 | 74.8 (active) |
| CXXC5 (GeneID 51523) | Rucaparib | OCI-C5x (clear cell) | 3 | 75 (active) |
| CXXC5 (GeneID 51523) | Rucaparib | OCI-P5x (serous) | 1 | 80.4 |
| CXXC5 (GeneID 51523) | Rucaparib | OCI-P5x (serous) | 2 | 86.1 |
| CXXC5 (GeneID 51523) | Rucaparib | OCI-P5x (serous) | 3 | 79.9 (active) |
| CXXC5 (GeneID 51523) | Vehicle | OCI-C5x (clear cell) | 1 | 43.4 (active) |
| CXXC5 (GeneID 51523) | Vehicle | OCI-C5x (clear cell) | 2 | 62.6 (active) |
| CXXC5 (GeneID 51523) | Vehicle | OCI-C5x (clear cell) | 3 | 44.7 (active) |
| CXXC5 (GeneID 51523) | Vehicle | OCI-P5x (serous) | 1 | 52.6 (active) |
| CXXC5 (GeneID 51523) | Vehicle | OCI-P5x (serous) | 2 | 82.6 |
| CXXC5 (GeneID 51523) | Vehicle | OCI-P5x (serous) | 3 | 79 (active) |

Continued (7 carried over from the part before).
| gene symbol | rucaparib or vehicle | cell line | technical replicate | viability, normalised (%) |
| --- | --- | --- | --- | --- |
| CXXC5 (GeneID 51523) | Rucaparib | OCI-P5x (serous) | 3 | 79.9 (active) |
| CXXC5 (GeneID 51523) | Vehicle | OCI-C5x (clear cell) | 1 | 43.4 (active) |
| CXXC5 (GeneID 51523) | Vehicle | OCI-C5x (clear cell) | 2 | 62.6 (active) |
| CXXC5 (GeneID 51523) | Vehicle | OCI-C5x (clear cell) | 3 | 44.7 (active) |
| CXXC5 (GeneID 51523) | Vehicle | OCI-P5x (serous) | 1 | 52.6 (active) |
| CXXC5 (GeneID 51523) | Vehicle | OCI-P5x (serous) | 2 | 82.6 |
| CXXC5 (GeneID 51523) | Vehicle | OCI-P5x (serous) | 3 | 79 (active) |
| SNAI1 (GeneID 6615) | Rucaparib | OCI-C5x (clear cell) | 1 | 59.7 (active) |
| SNAI1 (GeneID 6615) | Rucaparib | OCI-C5x (clear cell) | 2 | 49.6 (active) |
| SNAI1 (GeneID 6615) | Rucaparib | OCI-C5x (clear cell) | 3 | 49.7 (active) |
| SNAI1 (GeneID 6615) | Rucaparib | OCI-P5x (serous) | 1 | 64 (active) |
| SNAI1 (GeneID 6615) | Rucaparib | OCI-P5x (serous) | 2 | 57.6 (active) |
| SNAI1 (GeneID 6615) | Rucaparib | OCI-P5x (serous) | 3 | 78.3 (active) |
| SNAI1 (GeneID 6615) | Vehicle | OCI-C5x (clear cell) | 1 | 55.2 (active) |
| SNAI1 (GeneID 6615) | Vehicle | OCI-C5x (clear cell) | 2 | 51 (active) |
| SNAI1 (GeneID 6615) | Vehicle | OCI-C5x (clear cell) | 3 | 56.4 (active) |
| SNAI1 (GeneID 6615) | Vehicle | OCI-P5x (serous) | 1 | 62.7 (active) |
| SNAI1 (GeneID 6615) | Vehicle | OCI-P5x (serous) | 2 | 58.9 (active) |
| SNAI1 (GeneID 6615) | Vehicle | OCI-P5x (serous) | 3 | 73.2 (active) |
| ASXL3 (GeneID 80816) | Rucaparib | OCI-C5x (clear cell) | 1 | 70.3 (active) |
| ASXL3 (GeneID 80816) | Rucaparib | OCI-C5x (clear cell) | 2 | 56.9 (active) |
| ASXL3 (GeneID 80816) | Rucaparib | OCI-C5x (clear cell) | 3 | 58.8 (active) |
| ASXL3 (GeneID 80816) | Rucaparib | OCI-P5x (serous) | 1 | 74.9 (active) |
| ASXL3 (GeneID 80816) | Rucaparib | OCI-P5x (serous) | 2 | 72.3 (active) |
| ASXL3 (GeneID 80816) | Rucaparib | OCI-P5x (serous) | 3 | 74.7 (active) |
| ASXL3 (GeneID 80816) | Vehicle | OCI-C5x (clear cell) | 1 | 53.6 (active) |
| ASXL3 (GeneID 80816) | Vehicle | OCI-C5x (clear cell) | 2 | 60.5 (active) |
| ASXL3 (GeneID 80816) | Vehicle | OCI-C5x (clear cell) | 3 | 49 (active) |
| ASXL3 (GeneID 80816) | Vehicle | OCI-P5x (serous) | 1 | 60.1 (active) |
| ASXL3 (GeneID 80816) | Vehicle | OCI-P5x (serous) | 2 | 71.3 (active) |
| ASXL3 (GeneID 80816) | Vehicle | OCI-P5x (serous) | 3 | 69.1 (active) |
